For four molecules, binding results are on record in publication PMC7145526, “The mRNA repressor TRIM71 cooperates with Nonsense-Mediated Decay factors to destabilize the mRNA of CDKN1A/p21”.

By UniProt entry, the sequences of proteins in these tests, tags left out.
UniProt Q9UKV8: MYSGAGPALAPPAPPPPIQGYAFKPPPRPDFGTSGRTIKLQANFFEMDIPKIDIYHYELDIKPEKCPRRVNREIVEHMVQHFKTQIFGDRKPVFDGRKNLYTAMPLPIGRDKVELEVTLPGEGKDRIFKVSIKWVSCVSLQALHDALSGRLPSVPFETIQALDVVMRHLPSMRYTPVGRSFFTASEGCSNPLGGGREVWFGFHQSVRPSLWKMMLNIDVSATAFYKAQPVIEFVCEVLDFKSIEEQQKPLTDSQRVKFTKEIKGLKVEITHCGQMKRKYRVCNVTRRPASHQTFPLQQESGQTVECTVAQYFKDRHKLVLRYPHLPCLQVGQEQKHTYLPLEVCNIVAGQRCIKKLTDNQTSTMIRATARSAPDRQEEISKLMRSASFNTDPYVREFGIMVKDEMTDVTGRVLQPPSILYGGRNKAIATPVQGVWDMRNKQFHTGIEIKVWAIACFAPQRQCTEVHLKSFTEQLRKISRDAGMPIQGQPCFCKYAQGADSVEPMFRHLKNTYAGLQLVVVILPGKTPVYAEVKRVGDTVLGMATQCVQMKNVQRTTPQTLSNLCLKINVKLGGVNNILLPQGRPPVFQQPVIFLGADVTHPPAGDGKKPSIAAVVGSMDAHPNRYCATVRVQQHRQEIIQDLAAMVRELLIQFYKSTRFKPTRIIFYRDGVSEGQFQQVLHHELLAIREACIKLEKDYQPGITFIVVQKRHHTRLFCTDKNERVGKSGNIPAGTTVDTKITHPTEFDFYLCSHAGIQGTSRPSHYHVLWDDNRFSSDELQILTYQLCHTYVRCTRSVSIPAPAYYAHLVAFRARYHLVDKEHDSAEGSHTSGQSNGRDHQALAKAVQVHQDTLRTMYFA
UniProt Q96Q15: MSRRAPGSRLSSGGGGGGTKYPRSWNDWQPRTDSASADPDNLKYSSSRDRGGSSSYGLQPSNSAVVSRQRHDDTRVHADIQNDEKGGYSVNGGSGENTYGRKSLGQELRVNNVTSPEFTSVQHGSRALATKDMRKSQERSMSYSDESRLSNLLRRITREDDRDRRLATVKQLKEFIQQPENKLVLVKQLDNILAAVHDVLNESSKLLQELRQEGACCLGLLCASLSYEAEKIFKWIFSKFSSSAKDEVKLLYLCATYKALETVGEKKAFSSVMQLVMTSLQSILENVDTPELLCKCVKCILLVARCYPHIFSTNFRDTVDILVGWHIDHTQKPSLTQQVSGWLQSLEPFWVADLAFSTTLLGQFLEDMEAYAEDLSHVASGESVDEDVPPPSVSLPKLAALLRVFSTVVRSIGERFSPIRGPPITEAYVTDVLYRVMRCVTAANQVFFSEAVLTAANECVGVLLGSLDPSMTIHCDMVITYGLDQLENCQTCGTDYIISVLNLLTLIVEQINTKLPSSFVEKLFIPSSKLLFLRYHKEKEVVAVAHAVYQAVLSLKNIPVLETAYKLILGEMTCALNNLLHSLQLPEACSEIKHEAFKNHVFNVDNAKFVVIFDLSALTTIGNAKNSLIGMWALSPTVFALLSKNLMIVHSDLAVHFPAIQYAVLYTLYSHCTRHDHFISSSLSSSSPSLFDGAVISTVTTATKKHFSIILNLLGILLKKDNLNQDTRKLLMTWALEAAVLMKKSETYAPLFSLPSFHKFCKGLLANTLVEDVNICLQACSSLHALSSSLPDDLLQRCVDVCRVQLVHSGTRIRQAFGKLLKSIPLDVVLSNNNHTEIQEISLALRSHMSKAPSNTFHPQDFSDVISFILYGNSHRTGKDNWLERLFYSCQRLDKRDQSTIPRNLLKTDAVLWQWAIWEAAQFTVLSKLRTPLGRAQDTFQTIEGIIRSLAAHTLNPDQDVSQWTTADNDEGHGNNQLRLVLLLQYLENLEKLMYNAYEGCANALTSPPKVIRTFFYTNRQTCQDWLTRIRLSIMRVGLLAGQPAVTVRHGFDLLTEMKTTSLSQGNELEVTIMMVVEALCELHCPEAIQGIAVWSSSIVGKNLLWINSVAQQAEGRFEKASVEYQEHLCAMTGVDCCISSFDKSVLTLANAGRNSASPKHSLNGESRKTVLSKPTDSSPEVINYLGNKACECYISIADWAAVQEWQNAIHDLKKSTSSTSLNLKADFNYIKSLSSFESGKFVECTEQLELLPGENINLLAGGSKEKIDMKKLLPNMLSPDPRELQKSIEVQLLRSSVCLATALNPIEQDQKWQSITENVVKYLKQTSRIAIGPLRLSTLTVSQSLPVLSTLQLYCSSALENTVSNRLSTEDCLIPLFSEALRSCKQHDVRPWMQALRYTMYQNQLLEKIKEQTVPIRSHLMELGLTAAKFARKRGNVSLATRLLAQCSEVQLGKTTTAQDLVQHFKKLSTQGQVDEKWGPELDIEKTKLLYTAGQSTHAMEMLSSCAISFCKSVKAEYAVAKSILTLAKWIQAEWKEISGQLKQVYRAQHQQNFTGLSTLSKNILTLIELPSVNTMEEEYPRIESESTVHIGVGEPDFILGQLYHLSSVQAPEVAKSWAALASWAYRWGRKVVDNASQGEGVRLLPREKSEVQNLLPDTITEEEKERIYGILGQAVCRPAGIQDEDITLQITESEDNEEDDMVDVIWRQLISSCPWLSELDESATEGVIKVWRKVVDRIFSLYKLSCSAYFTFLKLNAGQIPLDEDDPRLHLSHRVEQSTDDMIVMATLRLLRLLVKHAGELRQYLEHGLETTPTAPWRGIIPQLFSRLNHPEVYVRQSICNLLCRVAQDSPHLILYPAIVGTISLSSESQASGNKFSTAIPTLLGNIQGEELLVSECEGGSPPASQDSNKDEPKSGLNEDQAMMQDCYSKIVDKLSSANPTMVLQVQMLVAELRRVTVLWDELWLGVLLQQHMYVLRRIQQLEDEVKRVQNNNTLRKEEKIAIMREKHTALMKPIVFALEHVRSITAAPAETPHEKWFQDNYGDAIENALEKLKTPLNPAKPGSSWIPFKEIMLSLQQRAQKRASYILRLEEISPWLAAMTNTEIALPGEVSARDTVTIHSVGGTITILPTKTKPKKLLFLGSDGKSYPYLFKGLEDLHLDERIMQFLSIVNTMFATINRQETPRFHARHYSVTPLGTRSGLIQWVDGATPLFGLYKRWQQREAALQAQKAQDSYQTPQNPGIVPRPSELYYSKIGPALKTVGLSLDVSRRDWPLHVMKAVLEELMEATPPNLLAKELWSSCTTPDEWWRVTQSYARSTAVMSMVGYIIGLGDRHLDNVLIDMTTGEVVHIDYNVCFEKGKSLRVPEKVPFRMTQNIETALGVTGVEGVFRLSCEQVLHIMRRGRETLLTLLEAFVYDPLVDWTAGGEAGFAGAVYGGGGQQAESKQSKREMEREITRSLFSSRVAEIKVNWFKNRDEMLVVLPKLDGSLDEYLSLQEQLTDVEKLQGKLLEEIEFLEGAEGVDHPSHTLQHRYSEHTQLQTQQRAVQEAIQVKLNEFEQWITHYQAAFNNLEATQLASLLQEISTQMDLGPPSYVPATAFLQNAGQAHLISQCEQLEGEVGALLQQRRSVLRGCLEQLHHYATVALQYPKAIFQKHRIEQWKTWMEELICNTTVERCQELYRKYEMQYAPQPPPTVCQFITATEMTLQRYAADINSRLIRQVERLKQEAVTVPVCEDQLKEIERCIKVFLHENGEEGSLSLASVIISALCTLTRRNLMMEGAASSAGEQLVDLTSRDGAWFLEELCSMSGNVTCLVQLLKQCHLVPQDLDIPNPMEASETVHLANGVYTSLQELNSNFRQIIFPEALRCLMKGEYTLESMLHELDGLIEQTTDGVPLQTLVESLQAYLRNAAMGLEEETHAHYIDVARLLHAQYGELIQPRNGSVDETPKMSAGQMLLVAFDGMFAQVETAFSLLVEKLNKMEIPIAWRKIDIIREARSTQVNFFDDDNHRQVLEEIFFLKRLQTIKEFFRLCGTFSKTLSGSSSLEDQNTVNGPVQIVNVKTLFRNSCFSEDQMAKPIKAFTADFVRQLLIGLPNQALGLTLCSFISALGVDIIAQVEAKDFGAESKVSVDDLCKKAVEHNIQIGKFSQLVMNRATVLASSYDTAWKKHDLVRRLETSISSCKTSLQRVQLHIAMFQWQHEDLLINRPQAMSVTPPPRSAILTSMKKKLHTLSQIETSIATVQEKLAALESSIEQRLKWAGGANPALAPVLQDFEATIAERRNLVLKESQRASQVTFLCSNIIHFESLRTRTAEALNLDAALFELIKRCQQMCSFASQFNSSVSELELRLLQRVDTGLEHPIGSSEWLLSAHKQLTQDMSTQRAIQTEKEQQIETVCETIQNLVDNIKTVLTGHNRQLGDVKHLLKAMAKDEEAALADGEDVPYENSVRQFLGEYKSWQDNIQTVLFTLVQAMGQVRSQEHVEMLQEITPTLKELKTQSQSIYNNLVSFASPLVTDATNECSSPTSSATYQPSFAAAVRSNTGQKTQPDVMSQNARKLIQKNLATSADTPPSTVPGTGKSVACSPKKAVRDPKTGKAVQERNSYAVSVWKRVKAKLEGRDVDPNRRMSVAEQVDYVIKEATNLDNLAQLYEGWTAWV

Test [1] addresses T1, Ig-TRIM71 (human) (UniProt Q2Q1W2).
T1 sequence: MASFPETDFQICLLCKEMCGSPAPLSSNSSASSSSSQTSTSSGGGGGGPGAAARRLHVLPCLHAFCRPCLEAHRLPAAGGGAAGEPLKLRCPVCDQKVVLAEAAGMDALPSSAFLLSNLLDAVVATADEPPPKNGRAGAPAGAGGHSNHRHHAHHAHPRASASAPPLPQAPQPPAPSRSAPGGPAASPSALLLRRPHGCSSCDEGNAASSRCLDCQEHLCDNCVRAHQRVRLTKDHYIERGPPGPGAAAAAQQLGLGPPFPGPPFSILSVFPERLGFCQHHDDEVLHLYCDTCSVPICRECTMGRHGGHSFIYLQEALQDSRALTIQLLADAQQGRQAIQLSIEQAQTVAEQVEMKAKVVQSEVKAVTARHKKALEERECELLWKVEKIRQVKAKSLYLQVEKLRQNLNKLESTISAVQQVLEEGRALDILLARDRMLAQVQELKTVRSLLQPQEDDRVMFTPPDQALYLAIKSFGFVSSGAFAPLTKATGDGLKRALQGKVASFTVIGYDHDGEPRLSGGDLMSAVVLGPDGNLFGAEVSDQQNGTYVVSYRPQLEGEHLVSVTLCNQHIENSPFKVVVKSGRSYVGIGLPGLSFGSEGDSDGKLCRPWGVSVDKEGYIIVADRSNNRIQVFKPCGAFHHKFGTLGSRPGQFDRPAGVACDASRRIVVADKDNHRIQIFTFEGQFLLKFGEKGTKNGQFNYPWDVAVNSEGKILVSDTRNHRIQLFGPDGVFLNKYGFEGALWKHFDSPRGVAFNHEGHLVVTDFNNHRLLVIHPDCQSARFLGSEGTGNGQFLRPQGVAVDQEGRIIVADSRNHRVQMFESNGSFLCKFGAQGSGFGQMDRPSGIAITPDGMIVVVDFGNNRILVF
As to the kind of experiment: co-IP; Ig-TRIM71 overexpressed in HEK293T, precipitated with Protein G Dynabeads (6 h, 4°C; IP buffer: 10 mM HEPES pH 7.5, 2 mM MgCl2, 10 mM KCl, 0.5% NP-40, 0.5 mM EDTA, 150 mM NaCl, 1 mM DTT); partners found by western blot. Background: In western blotting, separated proteins are transferred to a membrane and probed.

Test [2] addresses T2, endogenous SMG7 (HepG2) (human (endogenous in HepG2)) (UniProt Q92540).
T2 sequence: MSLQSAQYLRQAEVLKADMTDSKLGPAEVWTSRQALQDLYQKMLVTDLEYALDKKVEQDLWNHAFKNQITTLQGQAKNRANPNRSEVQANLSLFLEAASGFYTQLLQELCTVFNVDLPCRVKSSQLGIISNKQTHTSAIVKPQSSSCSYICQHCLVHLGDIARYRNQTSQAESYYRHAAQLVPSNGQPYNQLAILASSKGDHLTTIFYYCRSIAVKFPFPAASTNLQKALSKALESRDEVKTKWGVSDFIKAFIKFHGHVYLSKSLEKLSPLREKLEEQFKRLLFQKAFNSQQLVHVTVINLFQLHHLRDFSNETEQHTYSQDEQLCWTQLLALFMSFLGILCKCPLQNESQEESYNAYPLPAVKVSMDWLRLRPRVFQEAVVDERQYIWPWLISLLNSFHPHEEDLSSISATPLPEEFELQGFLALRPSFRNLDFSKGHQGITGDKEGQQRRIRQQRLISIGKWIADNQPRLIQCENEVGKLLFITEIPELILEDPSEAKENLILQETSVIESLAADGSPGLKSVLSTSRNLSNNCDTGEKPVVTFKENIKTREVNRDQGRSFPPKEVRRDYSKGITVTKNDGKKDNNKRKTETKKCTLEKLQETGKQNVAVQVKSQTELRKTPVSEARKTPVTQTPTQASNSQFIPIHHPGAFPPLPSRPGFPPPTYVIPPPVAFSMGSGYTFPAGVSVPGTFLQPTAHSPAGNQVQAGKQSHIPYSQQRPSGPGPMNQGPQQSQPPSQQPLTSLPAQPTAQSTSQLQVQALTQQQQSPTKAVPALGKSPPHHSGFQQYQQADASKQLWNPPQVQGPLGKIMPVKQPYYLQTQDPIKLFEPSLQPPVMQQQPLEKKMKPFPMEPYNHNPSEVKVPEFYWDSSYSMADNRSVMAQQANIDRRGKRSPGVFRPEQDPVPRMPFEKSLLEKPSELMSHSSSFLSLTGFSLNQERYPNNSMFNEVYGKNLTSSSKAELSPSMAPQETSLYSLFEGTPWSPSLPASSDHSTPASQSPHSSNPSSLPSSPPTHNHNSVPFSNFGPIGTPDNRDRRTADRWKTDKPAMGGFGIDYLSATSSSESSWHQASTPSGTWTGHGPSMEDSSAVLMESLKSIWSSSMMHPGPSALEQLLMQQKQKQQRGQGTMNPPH
As to the kind of experiment: co-IP; endogenous SMG7 precipitated from HepG2 lysate with antibody pre-coupled to Protein G Dynabeads; western blot.

Test [3] deals with T1, Ig-TRIM71 (human). As to the kind of experiment: co-IP; Ig-TRIM71 overexpressed in HEK293T, precipitated with Protein G Dynabeads (6 h, 4°C; IP buffer: 10 mM HEPES pH 7.5, 2 mM MgCl2, 10 mM KCl, 0.5% NP-40, 0.5 mM EDTA, 150 mM NaCl, 1 mM DTT); partners found by western blot. This is another data set of the same source.

Like-named read-outs stand apart in the source and are kept apart here. These are yes or no findings as the source states them, for the method shown. In cells and extracts the contact can be indirect. Some entries that bind do so weakly or less than the wild type.

With AGO2 (from UniProt Q9UKV8 1-859), in test [1], the binding result is given as “binds”. Regarding “SMG1 (HepG2) (from UniProt Q96Q15 1-3661)”, in test [2], the binding entry is given as “binds”.

B1: UPF1 (HepG2) (protein, UniProt Q92900 1-1129)
chain: MSVEAYGPSSQTLTFLDTEEAELLGADTQGSEFEFTDFTLPSQTQTPPGGPGGPGGGGAGGPGGAGAGAAAGQLDAQVGPEGILQNGAVDDSVAKTSQLLAELNFEEDEEDTYYTKDLPIHACSYCGIHDPACVVYCNTSKKWFCNGRGNTSGSHIVNHLVRAKCKEVTLHKDGPLGETVLECYNCGCRNVFLLGFIPAKADSVVVLLCRQPCASQSSLKDINWDSSQWQPLIQDRCFLSWLVKIPSEQEQLRARQITAQQINKLEELWKENPSATLEDLEKPGVDEEPQHVLLRYEDAYQYQNIFGPLVKLEADYDKKLKESQTQDNITVRWDLGLNKKRIAYFTLPKTDSGNEDLVIIWLRDMRLMQGDEICLRYKGDLAPLWKGIGHVIKVPDNYGDEIAIELRSSVGAPVEVTHNFQVDFVWKSTSFDRMQSALKTFAVDETSVSGYIYHKLLGHEVEDVIIKCQLPKRFTAQGLPDLNHSQVYAVKTVLQRPLSLIQGPPGTGKTVTSATIVYHLARQGNGPVLVCAPSNIAVDQLTEKIHQTGLKVVRLCAKSREAIDSPVSFLALHNQIRNMDSMPELQKLQQLKDETGELSSADEKRYRALKRTAERELLMNADVICCTCVGAGDPRLAKMQFRSILIDESTQATEPECMVPVVLGAKQLILVGDHCQLGPVVMCKKAAKAGLSQSLFERLVVLGIRPIRLQVQYRMHPALSAFPSNIFYEGSLQNGVTAADRVKKGFDFQWPQPDKPMFFYVTQGQEEIASSGTSYLNRTEAANVEKITTKLLKAGAKPDQIGIITPYEGQRSYLVQYMQFSGSLHTKLYQEVEIASVDAFQGREKDFIILSCVRANEHQGIGFLNDPRRLNVALTRARYGVIIVGNPKALSKQPLWNHLLNYYKEQKVLVEGPLNNLRESLMQFSKPRKLVNTINPGARFMTTAMYDAREAIIPGSVYDRSSQGRPSSMYFQTHDQIGMISAGPSHVAAMNIPIPFNLVMPPMPPPGYFGQANGPAAGRGTPKGKTGRGGRQKNRFGLPGPSQTNLPNSQASQDVASQPFSQGALTQGYISMSQPSQMSQPGLSQPELSQDSYLGDEFKSQIDVALSQDSTYQGERAYQHGGVTGLSQY
Regarding B1, in test [2], the binding entry was “binds”.

B2: SMG7 (protein, UniProt Q92540 1-1137)
chain: MSLQSAQYLRQAEVLKADMTDSKLGPAEVWTSRQALQDLYQKMLVTDLEYALDKKVEQDLWNHAFKNQITTLQGQAKNRANPNRSEVQANLSLFLEAASGFYTQLLQELCTVFNVDLPCRVKSSQLGIISNKQTHTSAIVKPQSSSCSYICQHCLVHLGDIARYRNQTSQAESYYRHAAQLVPSNGQPYNQLAILASSKGDHLTTIFYYCRSIAVKFPFPAASTNLQKALSKALESRDEVKTKWGVSDFIKAFIKFHGHVYLSKSLEKLSPLREKLEEQFKRLLFQKAFNSQQLVHVTVINLFQLHHLRDFSNETEQHTYSQDEQLCWTQLLALFMSFLGILCKCPLQNESQEESYNAYPLPAVKVSMDWLRLRPRVFQEAVVDERQYIWPWLISLLNSFHPHEEDLSSISATPLPEEFELQGFLALRPSFRNLDFSKGHQGITGDKEGQQRRIRQQRLISIGKWIADNQPRLIQCENEVGKLLFITEIPELILEDPSEAKENLILQETSVIESLAADGSPGLKSVLSTSRNLSNNCDTGEKPVVTFKENIKTREVNRDQGRSFPPKEVRRDYSKGITVTKNDGKKDNNKRKTETKKCTLEKLQETGKQNVAVQVKSQTELRKTPVSEARKTPVTQTPTQASNSQFIPIHHPGAFPPLPSRPGFPPPTYVIPPPVAFSMGSGYTFPAGVSVPGTFLQPTAHSPAGNQVQAGKQSHIPYSQQRPSGPGPMNQGPQQSQPPSQQPLTSLPAQPTAQSTSQLQVQALTQQQQSPTKAVPALGKSPPHHSGFQQYQQADASKQLWNPPQVQGPLGKIMPVKQPYYLQTQDPIKLFEPSLQPPVMQQQPLEKKMKPFPMEPYNHNPSEVKVPEFYWDSSYSMADNRSVMAQQANIDRRGKRSPGVFRPEQDPVPRMPFEKSLLEKPSELMSHSSSFLSLTGFSLNQERYPNNSMFNEVYGKNLTSSSKAELSPSMAPQETSLYSLFEGTPWSPSLPASSDHSTPASQSPHSSNPSSLPSSPPTHNHNSVPFSNFGPIGTPDNRDRRTADRWKTDKPAMGGFGIDYLSATSSSESSWHQASTPSGTWTGHGPSMEDSSAVLMESLKSIWSSSMMHPGPSALEQLLMQQKQKQQRGQGTMNPPH
On to B2, for which the binding result in test [3] is listed as “binds”.
